In US10383867B2, “Quinoline derivatives and their use for treating endoplasmic reticulum stress-related diseases and disorders” (priority 2015, dated 2019):
At least one structure is not confirmed: it was looked up by name or label, or the drawing left a doubt.

Tested on: SERCA
Assay: Activation of SERCA (NADH-linked, enzyme-coupled ATPase assay)
Type: biochemical
Experimental: Test compounds were characterized over a range of concentrations using an NADH-linked, enzyme-coupled ATPase assay. Each well contained […] of SR vesicles (optimized for skeletal or cardiac SR, respectively), 50 mM MOPS (pH 7.0), 100 mM KCl, 5 mM MgCl2, 1 mM EGTA, 0.2 mM NADH, 1 mM phosphoenol pyruvate, 5 IU pyruvate kinase, 5 IU lactate dehydrogenase, and […] A23187 (a calcium ionophore), and CaCl2 was added to set free [Ca^2+] to the specific values. The assay was started upon addition of ATP at a final concentration of 5 mM, and read in a SpectraMax Plus microplate spectrophotometer and the ATPase activities were fitted using the Hill function. ECso values were determined as the concentrations of the test compounds that were required for 50% activation of the maximum Vmax.
The biological results are summarized in Table 1, wherein, for SERCA ATPase EC50 values, A represents a value smaller than 20 μM, B represents a value between 20 μM to 100 μM, C represents a value greater than 100 μM; and for increases in Vmax at 10 μM, A′ represents an increase greater than 50%, B′ represents an increase between 20 to 50%, and C′ represents an increase no greater than 20%.

With `Cc1ccc2cccc(/C=C/c3ccc(OC(C)C)cc3)c2n1` [A1, (E)-8-(Isopropoxystyryl)-2-methylquinoline] as the molecule, how does the “Increase in Vmax at 10 μM” value (SERCA ATPase, compound at 10 μM) read?
The value was “B′ (B′ represents an increase between 20 to 50%)”.

And the EC50 (SR vesicles, concentration for 50% activation of the maximum Vmax)?
The EC50 was less than 20 µM.
